Measured data: PubChem BioAssay AID652272 (Drosophila RNAi Screening Center, 2013)
In all, the deposit lists about 21,000 reagents; below is an unselected part of those with a known target gene and a result. Over the whole deposit, 503 (2.4%) were called active. 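Raw plate light values, not normalised; calls rest on replicate z-scores that were not deposited; hits include reporter decreases as well as increases.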 Reagent sequences are not shown. Not given: the amount of reagent, the time to read-out.

Aim: 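Genome-wide knock-down search for components of Hedgehog signalling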 (primary screen)
System: Drosophila clone 8 (Cl8) cells
Reagent: long dsRNA against Drosophila genes
Measurement: 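Firefly light from a Hedgehog-responsive ptc promoter reporter and Renilla reference light, both read on a plate reader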
Direction: firefly Hh reporter signal: higher = more ptc reporter light; Renilla reference signal: higher = more Renilla control light
Call rule: 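Called a hit if the two-replicate mean z-score lies below -2 or above +3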
Meaning of the calls: active = hit: reporter lowered or raised; inactive = not a hit

PNUTS [DRSC00638]
- firefly Hh reporter signal, replicate 1: 70701
- firefly Hh reporter signal, replicate 2: 49841
- Renilla reference signal, replicate 1: 6034
- Renilla reference signal, replicate 2: 4096
- Call: active

dnd [DRSC16064]
- firefly Hh reporter signal, replicate 1: 8.71e5
- firefly Hh reporter signal, replicate 2: 2.02e5
- Renilla reference signal, replicate 1: 45984
- Renilla reference signal, replicate 2: 13077
- Call: inactive

CG13227 [DRSC06347]
- firefly Hh reporter signal, replicate 1: 1.38e5
- firefly Hh reporter signal, replicate 2: 94757
- Renilla reference signal, replicate 1: 3122
- Renilla reference signal, replicate 2: 6793
- Call: inactive

for [DRSC00195]
- firefly Hh reporter signal, replicate 1: 3.73e5
- firefly Hh reporter signal, replicate 2: 2.03e5
- Renilla reference signal, replicate 1: 17984
- Renilla reference signal, replicate 2: 7609
- Call: inactive

for [DRSC00818]
- firefly Hh reporter signal, replicate 1: 92832
- firefly Hh reporter signal, replicate 2: 84145
- Renilla reference signal, replicate 1: 4017
- Renilla reference signal, replicate 2: 3853
- Call: inactive

Records above whose target name begins with F or f:
for [DRSC00195]
- firefly Hh reporter signal, replicate 1: 3.73e5
- firefly Hh reporter signal, replicate 2: 2.03e5
- Renilla reference signal, replicate 1: 17984
- Renilla reference signal, replicate 2: 7609
- Call: inactive

for [DRSC00818]
- firefly Hh reporter signal, replicate 1: 92832
- firefly Hh reporter signal, replicate 2: 84145
- Renilla reference signal, replicate 1: 4017
- Renilla reference signal, replicate 2: 3853
- Call: inactive

The listing continues:
oc [DRSC18808]
- firefly Hh reporter signal, replicate 1: 99018
- firefly Hh reporter signal, replicate 2: 2.90e5
- Renilla reference signal, replicate 1: 2835
- Renilla reference signal, replicate 2: 10699
- Call: inactive

Pvf2 [DRSC00968]
- firefly Hh reporter signal, replicate 1: 5.38e5
- firefly Hh reporter signal, replicate 2: 1.02e5
- Renilla reference signal, replicate 1: 3768
- Renilla reference signal, replicate 2: 3768
- Call: inactive

Pvf2 [DRSC02283]
- firefly Hh reporter signal, replicate 1: 1.54e5
- firefly Hh reporter signal, replicate 2: 69175
- Renilla reference signal, replicate 1: 3879
- Renilla reference signal, replicate 2: 6185
- Call: inactive

PlexA [DRSC17220]
- firefly Hh reporter signal, replicate 1: 83475
- firefly Hh reporter signal, replicate 2: 68889
- Renilla reference signal, replicate 1: 1987
- Renilla reference signal, replicate 2: 1894
- Call: inactive

PIG-B [DRSC08216]
- firefly Hh reporter signal, replicate 1: 1.43e5
- firefly Hh reporter signal, replicate 2: 6.66e5
- firefly Hh reporter signal, replicate 3: 1.61e5
- Renilla reference signal, replicate 1: 6571
- Renilla reference signal, replicate 2: 38048
- Call: inactive

FoxK [DRSC09859]
- firefly Hh reporter signal, replicate 1: 71595
- firefly Hh reporter signal, replicate 2: 66736
- Renilla reference signal, replicate 1: 4308
- Renilla reference signal, replicate 2: 2531
- Call: inactive

CG34281 [DRSC14807]
- firefly Hh reporter signal, replicate 1: 78567
- firefly Hh reporter signal, replicate 2: 78217
- Renilla reference signal, replicate 1: 3056
- Renilla reference signal, replicate 2: 1027
- Call: inactive
